These are yes or no findings as the source states them, for the method shown. Binding seen in cells or lysates may run through a third protein. A yes stands for co-enrichment or nearness to the bait. Other partners may have been found. For some assays here: A no says only that the protein was not detected with the bait.
How the values were obtained:
Experiment in all cases: affinity purification with mass spectrometry; HA-tagged RNF146 wildtype, ΔRING or control HECTD1 expressed in HEK293 cells, isolated from 3.5 mg lysate with anti-HA 3F10 affinity matrix; Coomassie-stained gel bands excised for LC-MS/MS
[1] = target: HA-tagged wildtype RNF146 (human) (UniProt Q9NTX7)
[2] = target: HA-tagged HECTD1 (control E3 ligase) (UniProt Q9ULT8)
[3] = target: HA-tagged RNF146ΔRING (human) (UniProt Q9NTX7)
[4] = target: HA-tagged HECTD1 (control E3 ligase), Q9ULT8; conditions: remark: other sources report otherwise

Amino acid sequences for entries named in this document (tags omitted). A change or cut given only in a name is not applied to a line headed by its entry. Residues count along the entry.
UniProt Q9NTX7, residues 2-359: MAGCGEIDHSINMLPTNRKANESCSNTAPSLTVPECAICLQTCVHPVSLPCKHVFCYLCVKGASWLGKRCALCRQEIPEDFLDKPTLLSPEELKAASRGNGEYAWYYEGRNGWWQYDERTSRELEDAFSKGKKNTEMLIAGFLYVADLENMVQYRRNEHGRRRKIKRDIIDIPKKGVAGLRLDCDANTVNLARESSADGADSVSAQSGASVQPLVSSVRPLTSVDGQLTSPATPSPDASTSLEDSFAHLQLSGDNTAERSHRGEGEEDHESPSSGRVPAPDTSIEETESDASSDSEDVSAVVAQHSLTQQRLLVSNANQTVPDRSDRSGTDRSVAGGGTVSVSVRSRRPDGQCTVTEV
UniProt Q9ULT8: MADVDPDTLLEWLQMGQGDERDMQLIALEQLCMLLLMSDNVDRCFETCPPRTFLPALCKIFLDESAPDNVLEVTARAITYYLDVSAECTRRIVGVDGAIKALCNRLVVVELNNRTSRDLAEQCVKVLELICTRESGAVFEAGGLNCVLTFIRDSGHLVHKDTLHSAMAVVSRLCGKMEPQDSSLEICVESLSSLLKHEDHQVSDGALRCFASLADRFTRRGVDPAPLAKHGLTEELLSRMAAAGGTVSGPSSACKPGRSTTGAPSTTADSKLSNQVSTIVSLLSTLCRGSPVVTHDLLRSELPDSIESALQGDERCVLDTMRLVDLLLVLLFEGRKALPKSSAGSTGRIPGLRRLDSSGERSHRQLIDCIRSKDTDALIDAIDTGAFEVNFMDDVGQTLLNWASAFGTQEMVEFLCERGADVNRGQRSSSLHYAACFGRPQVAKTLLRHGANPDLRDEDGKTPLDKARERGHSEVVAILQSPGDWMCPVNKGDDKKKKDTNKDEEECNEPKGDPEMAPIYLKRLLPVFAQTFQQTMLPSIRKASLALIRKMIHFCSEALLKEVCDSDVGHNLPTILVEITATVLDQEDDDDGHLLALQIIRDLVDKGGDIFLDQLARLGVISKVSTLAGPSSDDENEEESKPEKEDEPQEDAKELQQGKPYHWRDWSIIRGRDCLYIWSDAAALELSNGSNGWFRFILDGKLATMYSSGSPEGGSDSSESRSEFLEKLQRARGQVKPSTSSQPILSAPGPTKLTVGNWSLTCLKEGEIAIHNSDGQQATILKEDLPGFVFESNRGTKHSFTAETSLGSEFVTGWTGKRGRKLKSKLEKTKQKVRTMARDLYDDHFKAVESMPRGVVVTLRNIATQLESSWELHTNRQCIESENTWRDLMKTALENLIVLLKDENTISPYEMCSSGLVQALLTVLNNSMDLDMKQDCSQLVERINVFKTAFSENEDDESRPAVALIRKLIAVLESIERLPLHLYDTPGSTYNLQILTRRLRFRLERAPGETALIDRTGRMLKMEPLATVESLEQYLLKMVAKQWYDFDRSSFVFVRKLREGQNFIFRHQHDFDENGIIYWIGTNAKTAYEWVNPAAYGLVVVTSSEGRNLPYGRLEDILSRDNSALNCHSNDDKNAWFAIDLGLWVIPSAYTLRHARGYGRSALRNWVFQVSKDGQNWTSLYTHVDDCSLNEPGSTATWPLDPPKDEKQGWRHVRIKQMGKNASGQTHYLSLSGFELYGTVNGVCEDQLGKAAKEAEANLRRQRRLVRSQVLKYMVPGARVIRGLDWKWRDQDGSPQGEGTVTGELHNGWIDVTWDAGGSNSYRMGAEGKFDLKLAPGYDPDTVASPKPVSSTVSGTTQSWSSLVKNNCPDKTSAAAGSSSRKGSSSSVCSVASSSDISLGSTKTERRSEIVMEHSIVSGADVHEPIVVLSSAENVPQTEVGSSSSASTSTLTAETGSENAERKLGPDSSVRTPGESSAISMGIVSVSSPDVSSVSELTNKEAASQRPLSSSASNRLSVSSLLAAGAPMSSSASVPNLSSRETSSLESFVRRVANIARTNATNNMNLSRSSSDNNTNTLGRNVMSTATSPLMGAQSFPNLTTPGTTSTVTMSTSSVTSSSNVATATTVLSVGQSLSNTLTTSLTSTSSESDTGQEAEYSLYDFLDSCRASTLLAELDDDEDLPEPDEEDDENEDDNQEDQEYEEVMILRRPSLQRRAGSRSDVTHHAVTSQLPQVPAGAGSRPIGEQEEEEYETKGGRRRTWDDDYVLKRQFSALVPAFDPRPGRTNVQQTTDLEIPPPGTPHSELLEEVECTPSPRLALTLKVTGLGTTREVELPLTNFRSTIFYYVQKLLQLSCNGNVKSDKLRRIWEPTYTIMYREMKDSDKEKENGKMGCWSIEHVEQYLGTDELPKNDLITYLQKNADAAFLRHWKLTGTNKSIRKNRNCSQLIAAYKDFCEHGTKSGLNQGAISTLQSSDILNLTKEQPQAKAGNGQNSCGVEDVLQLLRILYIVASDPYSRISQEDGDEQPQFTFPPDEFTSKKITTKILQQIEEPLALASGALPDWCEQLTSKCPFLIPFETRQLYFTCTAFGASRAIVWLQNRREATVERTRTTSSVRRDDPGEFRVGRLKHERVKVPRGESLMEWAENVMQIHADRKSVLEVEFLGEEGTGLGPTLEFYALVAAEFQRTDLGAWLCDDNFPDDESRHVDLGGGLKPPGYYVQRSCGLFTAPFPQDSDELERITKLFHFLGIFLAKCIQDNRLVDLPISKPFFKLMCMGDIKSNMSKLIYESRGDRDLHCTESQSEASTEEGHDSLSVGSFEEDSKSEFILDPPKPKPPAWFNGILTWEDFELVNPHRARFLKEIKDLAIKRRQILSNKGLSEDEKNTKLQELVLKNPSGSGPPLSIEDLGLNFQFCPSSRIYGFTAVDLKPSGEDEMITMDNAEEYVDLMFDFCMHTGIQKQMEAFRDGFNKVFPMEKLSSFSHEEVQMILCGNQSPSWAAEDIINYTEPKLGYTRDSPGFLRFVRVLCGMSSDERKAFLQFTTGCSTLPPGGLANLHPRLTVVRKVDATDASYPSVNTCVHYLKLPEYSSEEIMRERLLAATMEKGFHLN
UniProt P09874: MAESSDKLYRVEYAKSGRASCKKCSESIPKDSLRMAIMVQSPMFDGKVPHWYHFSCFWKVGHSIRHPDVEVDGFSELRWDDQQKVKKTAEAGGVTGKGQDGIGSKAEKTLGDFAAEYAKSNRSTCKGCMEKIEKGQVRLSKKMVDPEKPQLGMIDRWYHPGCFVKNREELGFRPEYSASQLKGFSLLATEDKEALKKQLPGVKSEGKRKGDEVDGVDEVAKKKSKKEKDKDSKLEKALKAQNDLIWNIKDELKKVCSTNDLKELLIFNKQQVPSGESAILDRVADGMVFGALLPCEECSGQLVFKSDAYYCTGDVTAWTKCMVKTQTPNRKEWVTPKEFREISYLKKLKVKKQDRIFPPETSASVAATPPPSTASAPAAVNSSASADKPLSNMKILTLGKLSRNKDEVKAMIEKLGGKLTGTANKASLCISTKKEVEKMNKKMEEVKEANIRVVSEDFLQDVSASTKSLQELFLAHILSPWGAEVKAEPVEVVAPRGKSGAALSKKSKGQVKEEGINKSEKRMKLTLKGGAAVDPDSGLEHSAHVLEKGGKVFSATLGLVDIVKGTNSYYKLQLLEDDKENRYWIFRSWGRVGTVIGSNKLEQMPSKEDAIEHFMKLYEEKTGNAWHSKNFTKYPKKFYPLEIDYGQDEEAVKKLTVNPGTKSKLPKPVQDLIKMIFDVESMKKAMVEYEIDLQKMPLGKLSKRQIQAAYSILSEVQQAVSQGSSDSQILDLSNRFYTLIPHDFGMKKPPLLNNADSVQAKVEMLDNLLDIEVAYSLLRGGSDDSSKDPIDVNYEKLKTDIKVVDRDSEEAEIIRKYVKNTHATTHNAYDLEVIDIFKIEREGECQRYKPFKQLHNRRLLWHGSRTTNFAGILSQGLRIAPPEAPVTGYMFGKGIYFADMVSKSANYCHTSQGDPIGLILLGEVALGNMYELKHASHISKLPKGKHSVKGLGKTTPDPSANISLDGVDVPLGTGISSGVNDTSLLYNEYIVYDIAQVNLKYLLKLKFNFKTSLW
UniProt Q9UGN5: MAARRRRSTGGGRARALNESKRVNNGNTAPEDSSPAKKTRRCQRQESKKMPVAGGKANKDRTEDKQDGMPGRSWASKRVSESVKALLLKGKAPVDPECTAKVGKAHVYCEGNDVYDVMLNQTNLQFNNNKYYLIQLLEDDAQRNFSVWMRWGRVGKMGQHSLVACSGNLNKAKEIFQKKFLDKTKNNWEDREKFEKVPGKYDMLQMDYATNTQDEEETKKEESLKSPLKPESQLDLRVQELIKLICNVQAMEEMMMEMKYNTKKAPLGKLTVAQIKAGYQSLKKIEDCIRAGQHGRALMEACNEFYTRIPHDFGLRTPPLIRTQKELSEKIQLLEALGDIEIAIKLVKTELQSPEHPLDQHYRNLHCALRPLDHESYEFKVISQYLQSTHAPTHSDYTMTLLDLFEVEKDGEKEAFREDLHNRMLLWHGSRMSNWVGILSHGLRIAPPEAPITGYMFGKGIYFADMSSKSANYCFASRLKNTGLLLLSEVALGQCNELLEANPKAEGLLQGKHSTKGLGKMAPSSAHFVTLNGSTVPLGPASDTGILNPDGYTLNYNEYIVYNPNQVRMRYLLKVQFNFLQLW

Molecule: HECT-type ubiquitin E3 ligase HUWE1 (endogenous) (from UniProt Q7Z6Z7 1-4374) (enzyme)
- binding [1]: binds

Molecule: PARP1 (endogenous) (from UniProt P09874 1-1014) (enzyme)
- binding [2]: no binding

Molecule: PARP2 (endogenous) (from UniProt Q9UGN5 1-583) (enzyme)
- binding [2]: no binding
- binding [3]: binds

Molecule: TNKS1 (endogenous) (from UniProt O95271-1 1-1327) (enzyme)
- binding [3]: binds

B1: TNKS2 (endogenous) (enzyme, UniProt Q9H2K2 1-1166)
chain: MSGRRCAGGGAACASAAAEAVEPAARELFEACRNGDVERVKRLVTPEKVNSRDTAGRKSTPLHFAAGFGRKDVVEYLLQNGANVQARDDGGLIPLHNACSFGHAEVVNLLLRHGADPNARDNWNYTPLHEAAIKGKIDVCIVLLQHGAEPTIRNTDGRTALDLADPSAKAVLTGEYKKDELLESARSGNEEKMMALLTPLNVNCHASDGRKSTPLHLAAGYNRVKIVQLLLQHGADVHAKDKGDLVPLHNACSYGHYEVTELLVKHGACVNAMDLWQFTPLHEAASKNRVEVCSLLLSYGADPTLLNCHNKSAIDLAPTPQLKERLAYEFKGHSLLQAAREADVTRIKKHLSLEMVNFKHPQTHETALHCAAASPYPKRKQICELLLRKGANINEKTKEFLTPLHVASEKAHNDVVEVVVKHEAKVNALDNLGQTSLHRAAYCGHLQTCRLLLSYGCDPNIISLQGFTALQMGNENVQQLLQEGISLGNSEADRQLLEAAKAGDVETVKKLCTVQSVNCRDIEGRQSTPLHFAAGYNRVSVVEYLLQHGADVHAKDKGGLVPLHNACSYGHYEVAELLVKHGAVVNVADLWKFTPLHEAAAKGKYEICKLLLQHGADPTKKNRDGNTPLDLVKDGDTDIQDLLRGDAALLDAAKKGCLARVKKLSSPDNVNCRDTQGRHSTPLHLAAGYNNLEVAEYLLQHGADVNAQDKGGLIPLHNAASYGHVDVAALLIKYNACVNATDKWAFTPLHEAAQKGRTQLCALLLAHGADPTLKNQEGQTPLDLVSADDVSALLTAAMPPSALPSCYKPQVLNGVRSPGATADALSSGPSSPSSLSAASSLDNLSGSFSELSSVVSSSGTEGASSLEKKEVPGVDFSITQFVRNLGLEHLMDIFEREQITLDVLVEMGHKELKEIGINAYGHRHKLIKGVERLISGQQGLNPYLTLNTSGSGTILIDLSPDDKEFQSVEEEMQSTVREHRDGGHAGGIFNRYNILKIQKVCNKKLWERYTHRRKEVSEENHNHANERMLFHGSPFVNAIIHKGFDERHAYIGGMFGAGIYFAENSSKSNQYVYGIGGGTGCPVHKDRSCYICHRQLLFCRVTLGKSFLQFSAMKMAHSPPGHHSVTGRPSVNGLALAEYVIYRGEQAYPEYLITYQIMRPEGMVDG
- binding [2]: no binding
- binding [3]: binds

B2: TNKS1 (endogenous), O95271-1 1-1327 (enzyme)
chain: MAASRRSQHHHHHHQQQLQPAPGASAPPPPPPPPLSPGLAPGTTPASPTASGLAPFASPRHGLALPEGDGSRDPPDRPRSPDPVDGTSCCSTTSTICTVAAAPVVPAVSTSSAAGVAPNPAGSGSNNSPSSSSSPTSSSSSSPSSPGSSLAESPEAAGVSSTAPLGPGAAGPGTGVPAVSGALRELLEACRNGDVSRVKRLVDAANVNAKDMAGRKSSPLHFAAGFGRKDVVEHLLQMGANVHARDDGGLIPLHNACSFGHAEVVSLLLCQGADPNARDNWNYTPLHEAAIKGKIDVCIVLLQHGADPNIRNTDGKSALDLADPSAKAVLTGEYKKDELLEAARSGNEEKLMALLTPLNVNCHASDGRKSTPLHLAAGYNRVRIVQLLLQHGADVHAKDKGGLVPLHNACSYGHYEVTELLLKHGACVNAMDLWQFTPLHEAASKNRVEVCSLLLSHGADPTLVNCHGKSAVDMAPTPELRERLTYEFKGHSLLQAAREADLAKVKKTLALEIINFKQPQSHETALHCAVASLHPKRKQVTELLLRKGANVNEKNKDFMTPLHVAAERAHNDVMEVLHKHGAKMNALDTLGQTALHRAALAGHLQTCRLLLSYGSDPSIISLQGFTAAQMGNEAVQQILSESTPIRTSDVDYRLLEASKAGDLETVKQLCSSQNVNCRDLEGRHSTPLHFAAGYNRVSVVEYLLHHGADVHAKDKGGLVPLHNACSYGHYEVAELLVRHGASVNVADLWKFTPLHEAAAKGKYEICKLLLKHGADPTKKNRDGNTPLDLVKEGDTDIQDLLRGDAALLDAAKKGCLARVQKLCTPENINCRDTQGRNSTPLHLAAGYNNLEVAEYLLEHGADVNAQDKGGLIPLHNAASYGHVDIAALLIKYNTCVNATDKWAFTPLHEAAQKGRTQLCALLLAHGADPTMKNQEGQTPLDLATADDIRALLIDAMPPEALPTCFKPQATVVSASLISPASTPSCLSAASSIDNLTGPLAELAVGGASNAGDGAAGTERKEGEVAGLDMNISQFLKSLGLEHLRDIFETEQITLDVLADMGHEELKEIGINAYGHRHKLIKGVERLLGGQQGTNPYLTFHCVNQGTILLDLAPEDKEYQSVEEEMQSTIREHRDGGNAGGIFNRYNVIRIQKVVNKKLRERFCHRQKEVSEENHNHHNERMLFHGSPFINAIIHKGFDERHAYIGGMFGAGIYFAENSSKSNQYVYGIGGGTGCPTHKDRSCYICHRQMLFCRVTLGKSFLQFSTMKMAHAPPGHHSVIGRPSVNGLAYAEYVIYRGEQAYPEYLITYQIMKPEAPSQTATAAEQKT
- binding [4]: no binding

Source: paper PMC3143158
